Assay results as given in article PMC8881488, “Intricate coupling between the transactivation and basic-leucine zipper domains governs phosphorylation of transcription factor ATF4 by casein kinase 2” (The Journal of Biological Chemistry, 2022).
No constants are given. Whether binding was seen depends on the method and setting.

Amino acid sequences for entries named in this document (tags omitted). Residues count along the entry.
UniProt P18848, residues 1-275: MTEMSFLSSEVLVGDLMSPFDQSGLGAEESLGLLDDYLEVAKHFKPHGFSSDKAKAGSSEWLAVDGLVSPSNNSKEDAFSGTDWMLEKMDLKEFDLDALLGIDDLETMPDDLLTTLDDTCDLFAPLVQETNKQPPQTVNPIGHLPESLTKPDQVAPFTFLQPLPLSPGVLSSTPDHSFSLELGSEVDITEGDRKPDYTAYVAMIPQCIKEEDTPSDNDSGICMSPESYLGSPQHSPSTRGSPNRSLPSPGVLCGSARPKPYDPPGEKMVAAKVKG

Target: ATF4-275 (isolated transactivation domain of activating transcription factor 4) (human) (UniProt P18848)
Assay: SEC-MALS; ATF4-275 at 3, 6 and 9 mg/ml (~100, 200, 300 uM); Shodex 803 column; 20 mM MES pH 6.5, 50 mM NaCl; 20 °C; both purified

With “ATF4-275 (isolated transactivation domain of activating transcription factor 4) (from UniProt P18848 1-275) (domain or fragment)” the binding was “no binding (tested: 3, 6 and 9 mg/ml (~100, 200, 300 uM))”.
